These are yes or no findings as the source states them, for the method shown. Binding can be weak; no strength is given. Sequences can lack the tags named with a protein.

From article doi:10.1101/566687 come the findings set out here.

The target of the test is phyB PASII domain fused to DBD (yeast two-hybrid) (Arabidopsis thaliana). As to the kind of experiment: two-hybrid.

B1: PCH1 fused to AD (yeast two-hybrid) (protein, UniProt Q84V03 1-778)
chain: MSEHVMVLGKGNKGISKNSSVNPYESAWLGRWTQSGSEVKFHDGETNCSKQLIRPEDENHGVEVLPFPMFKVSQKRETTTTTTTKPSFHEDVGSSSRAMVNRMPWMYPQGENFSSSNRLDFPIQEKTTQNLLELIRPVRIYATVDSVNLPKEDSHQLLKGSTVSMKLKGKIFGGYLDLFPNQDHSHNRGGVRLQSLESSKDTQEDGPRKNESSAETNTLEMDRLQTIHLSGSISSSSTKGKGIKGYSAIPRTEIPDMNEEPPLVPDRENSVDGHQGETSNSATQSMNVEHFLSRDCKRVRLEPEVEASSRWVKRLKTSPSDSSETKSMMKMKEASLGEKENNNLFLEILKSGINNLQPRNQEPVVSQSNDLRQGGDDITLLHPWIQRWCKKKTTSTDQPTGQEASFEPESHKEFEKKQYPSIAAMALMGKALSGLNPYGLRKTNSLMVWNARDLSFTYRSLRWNLTMADWPLLPNDLLELIMGHLETSFEIFLFRSVCSSWRSVVPPLDHSRCLGIKTHDISFNVGFSFNGRPTNEYCTLKKIPIYLVKFWTPFGDDYLLAEMRERNDGEPKLLLSPLSSNGIKYGMGINKVLFNSLTSPIIPFGQYYEITYIEKRPSEYRFGFPYKLEWVEITERVEFLKLDSEDSRDFAVLFAGRMCNLVMYRSRNMSWTQVVEHPEKYAYQDLVAFKGKFYAVDSSGRGRVFVVELSFEVTEIPSVGGSQQSSKESLVQSGEELLLVQRFTPVGRRYDEYIYIHGSECLDLMKKEERESGFKLMT
On to B1, for which the binding result was “binds”.
